In patent publication US7776312B2, “Method of treating Alzheimer's disease comprising administering deferoxamine (DFO) to the upper one-third of the nasal cavity” (HealthPartners Research Foundation, priority 2004, dated 2010):
For at least one compound, name, drawing or mass did not settle the structure.

Experiments:
[1] = cited from earlier work
[2] = system: HIF-1α mRNA; experiment: RT-PCR of HIF-1α mRNA in olfactory bulb and striatum after intranasal DFO; assay type: in vivo; conditions: rats, intranasal DFO vs intranasal distilled water

CC(=O)N(O)CCCCCNC(=O)CCC(=O)N(O)CCCCCNC(=O)CCC(=O)N(O)CCCCCN [DFO, deferoxamine]
Fe-III binding constant [1]: 10^31
concentration of HIF-1α mRNA vs controls [2]: no differences
